Data on two sequences can be found in publication PMC3510509.

For at least one entry, the source does not settle the construct or the ends of the probe. For part of these data: No signal at the amounts used counts as a negative. For part of these data: Weaker means in comparison with the reference protein, sequence or condition of that experiment. For part of these data: At least one verdict was read from the data and is not stated in words by the source.

For data set [1], the system named is Topoisomerase IV holoenzyme (Escherichia coli). The data set is described as follows: pull-down. As to conditions: 200 nM, with 240 bp DNA; recombinant protein; label: biotin on one strand, 32P on complement.
Data set [2] has as its target GyrB R321A (Mycobacterium smegmatis) (UniProt P0C559). The data set can be described thus: filter binding. As to conditions: data not shown, DNA presumed 72 bp; filter binding: same mix on ice; recombinant protein; label: 32P 5'-end.
Data set [3] addresses GyrB (MsGyrB) (Mycobacterium smegmatis) (UniProt P0C559). The data set can be described thus: filter binding. As to conditions: pre-incubated with 2 mM AMPPNP; filter binding: same mix on ice; recombinant protein; label: 32P 5'-end.
Data set [4] has the same target. The data set is described as follows: EMSA. As to conditions: 200 and 400 nM, beside R321A; EMSA: 35 mM Tris-HCl pH 7.5, 1 mM spermidine, 25 mM K-glutamate, 90 ug/ml tRNA, 1.4 mM ATP, 50 ug/ml BSA, room temp (25 C), 1 nM DNA; recombinant protein; label: 32P 5'-end. (In general: In EMSA bound probe runs differently from free probe, usually more slowly.)
Data set [5] concerns DNA gyrase holoenzyme (MsGyr) (Mycobacterium smegmatis). The data set is described as follows: EMSA. As to conditions: second DNA, 240 bp complex unaffected, EMSA: 35 mM Tris-HCl pH 7.5, 1 mM spermidine, 25 mM K-glutamate, 90 ug/ml tRNA, 1.4 mM ATP, 50 ug/ml BSA, room temp (25 C), 1 nM DNA, recombinant protein, label: 32P 5'-end.

Regarding “ACTCTAGAGGATCCCCGGTTGGACTAAGTCCCCAGGCCCCTTAGCCACCACAACGTGGGTACCGAGCTCGAA (double strand) [biotinylated 72 bp DNA]”, the binding result in data set [1] is “binds”.

On to “ACTCTAGAGGATCCCCGGTTGGACTAAGTCCCCAGGCCCCTTAGCCACCACAACGTGGGTACCGAGCTCGAA (double strand) [DNA II (72 bp)]”, for which the binding result in data set [2] is “binds more weakly”; in data set [3], “binds more weakly”; in data set [4], “binds”; in data set [5] (enzyme pre-bound to 240 bp DNA with 2 ug/ml moxifloxacin), “no binding”; in data set [5] (enzyme pre-bound to 240 bp DNA, no moxifloxacin), “no binding”.
